Here are results for 3 compounds from the supplement of paper PMC7024190.

Molecules are shown by their SMILES. The list shows a part of the results. This data set is noisy: repeats of one test often differ as much as different tests do.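 The cells were human embryonic kidney cells carrying a Renilla luciferase gene, driven by the HSV-TK promoter, on a plasmid put in briefly by transfection. This is the first-round screen of about ten thousand compounds, looking for ones that raise reporter output.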

In this experiment the test system is HEK 293FT. The experiment in a line: log relative Renilla luciferase luminescence (reporter expression vs reference, reference not stated) (log (base not stated)); higher = higher recombinant reporter expression. As to conditions: 10 µM; time after transfection 48 h.
For the compound `O=C(N/N=C/c1ccc(O)cc1)c1ccncc1` [Flavoteben], the log is 0.103.
The value for `C[C@@H]1CN(c2c(F)c(F)c3c(=O)c(C(=O)O)cn(C4CC4)c3c2F)C[C@H](C)N1` [Orbifloxacin] was 0.084.
For the compound `CCn1cc(C(=O)O)c(=O)c2ccc(C)nc21` [Nalidixic acid], the log was -0.128.
